Patent US20200016266A1
Residue numbers refer to the chain shown, from its start. These are yes or no findings as the source states them, for the method shown.

Assays:
Experiment in all cases: PEPperMAP conformational epitope mapping peptide array, fluorescence intensity [a.u.]
[1] = target: T1, …
T1 sequence (peptide): NAHGDANTIV

GYEFKFP = target: T2, GYEFKFP
T2 sequence (peptide): GYEFKFP

QANLTVK = target: T3, QANLTVK
T3 sequence (peptide): QANLTVK

[2] = target: T4, …; remark: listed apart in the source
T4 sequence (peptide): LPDGYEFKFP

[3] = target: T5, …; remark: listed apart in the source
T5 sequence (peptide): TEQREAVFPFQPG

LHFNPRF = target: T6, LHFNPRF
T6 sequence (peptide): LHFNPRF

[4] = target: T7, …; remark: listed apart in the source
T7 sequence (peptide): QPGSVAEVCI

[5] = target: T8, …; remark: listed apart in the source
T8 sequence (peptide): TEQREAVFPF

[6] = target: T9, …; remark: listed apart in the source
T9 sequence (peptide): NRLNLEAINY

[7] = target: T10, …; remark: listed apart in the source
T10 sequence (peptide): RGEVAPDAKS

REAVFPF = target: T11, REAVFPF
T11 sequence (peptide): REAVFPF

FDGSGSG = target: T12, FDGSGSG
T12 sequence (peptide): FDGSGSG

[8] = target: T13, …; remark: listed apart in the source
T13 sequence (peptide): CVAFDGSGSG

[9] = target: T14, …; remark: listed apart in the source
T14 sequence (peptide): RGEVAPDAKSFVL

[10] = target: T15, …; remark: listed apart in the source
T15 sequence (peptide): NAHGDANTIVCNS

[11] = target: T16, …; remark: listed apart in the source
T16 sequence (peptide): NLKPGECLRVRGE

[12] = target: T17, …; remark: listed apart in the source
T17 sequence (peptide): CNSKDGGAWG

GDANTIV = target: T18, GDANTIV
T18 sequence (peptide): GDANTIV

[13] = target: T19, …; remark: listed apart in the source
T19 sequence (peptide): NLCLHFNPRFNAH

GSGSGSG = target: T20, GSGSGSG
T20 sequence (peptide): GSGSGSG

[14] = target: T21, …; remark: listed apart in the source
T21 sequence (peptide): MACGLVASNLNLK

[15] = target: T22, …; remark: listed apart in the source
T22 sequence (peptide): TFDQANLTVK

[16] = target: T23, …; remark: listed apart in the source
T23 sequence (peptide): CNSKDGGAWGTEQ

[17] = target: T24, …; remark: listed apart in the source
T24 sequence (peptide): FVLNLGKDSN

[18] = target: T25, …; remark: listed apart in the source
T25 sequence (peptide): MACGLVASNL

[19] = target: T26, …; remark: listed apart in the source
T26 sequence (peptide): NLKPGECLRV

NLEAINY = target: T27, NLEAINY
T27 sequence (peptide): NLEAINY

[20] = target: T28, …; remark: listed apart in the source
T28 sequence (peptide): FVLNLGKDSNNLC

[21] = target: T29, …; remark: listed apart in the source
T29 sequence (peptide): NLCLHFNPRF

KDGGAWG = target: T30, KDGGAWG
T30 sequence (peptide): KDGGAWG

SVAEVCI = target: T31, SVAEVCI
T31 sequence (peptide): SVAEVCI

Measured: binding

B1: anti-Gal1 Clone 21, fully human monoclonal antibody (antibody, V domains shown)
VH: EVQLLESGGGLVQPGGSLRLSCAASGFTFSSYAMSWVRQAPGKGLEWVSEIGRVGVNTLYADSVKGRFTISRDNSKNTLYLQMNSLRAEDTAVYYCAKKATQFDYWGQGTLVTVSS
VL: DIQMTQSPSSLSASVGDRVTITCRASQSISSYLNWYQQKPGKAPKLLIYRASRLQSGVPSRFSGSGSGTDFTLTISSLQPEDFATYYCQQTIGPPDTFGQGTKVEIKR
no binding (tested: 10 µg/ml): all assays above

B2: anti-Gal1 Clone 42, fully human monoclonal antibody (antibody, V domains shown)
VH: EVQLLESGGGLVQPGGSLRLSCAASGFTFSSYAMSWVRQAPGKGLEWVSGISGSGDYTSYADSVKGRFTISRDNSKNTLYLQMNSLRAEDTAVYYCAKGYGAFDYWGQGTLVTVSS
VL: B1 VL with R50G, R53W, T91S, I92A, G93N, P94Y, D96S
no binding (tested: 10 µg/ml): all assays above
